Assay results from paper PMC11809379.
Results are given in words; binding and its absence hold for the method and conditions named. Binding seen in cells or lysates may run through a third protein. Some binding calls cover weakened binding; strength is not graded here. For some assays here: Tags and fused reporters may be left off the sequences shown.

The chains behind the UniProt entries cited, without tags or fusion partners.
UniProt Q9UPY5: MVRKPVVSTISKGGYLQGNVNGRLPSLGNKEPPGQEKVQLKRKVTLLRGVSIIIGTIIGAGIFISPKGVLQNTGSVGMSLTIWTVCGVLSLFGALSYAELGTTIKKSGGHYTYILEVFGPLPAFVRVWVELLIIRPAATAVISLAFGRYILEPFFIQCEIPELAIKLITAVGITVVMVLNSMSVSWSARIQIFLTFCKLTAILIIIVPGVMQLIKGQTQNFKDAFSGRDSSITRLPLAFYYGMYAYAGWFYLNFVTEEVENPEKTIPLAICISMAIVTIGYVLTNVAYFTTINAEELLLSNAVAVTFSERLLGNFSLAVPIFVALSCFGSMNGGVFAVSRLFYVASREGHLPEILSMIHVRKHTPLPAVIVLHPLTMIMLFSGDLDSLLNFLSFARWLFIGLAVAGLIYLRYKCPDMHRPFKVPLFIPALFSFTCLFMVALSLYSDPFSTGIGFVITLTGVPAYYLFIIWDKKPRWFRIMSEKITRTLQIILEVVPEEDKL

B1: HA-tagged USP19 (ubiquitin-specific protease 19) (enzyme, UniProt O94966 1-1318)
chain: MSGGASATGPRRGPPGLEDTTSKKKQKDRANQESKDGDPRKETGSRYVAQAGLEPLASGDPSASASHAAGITGSRHRTRLFFPSSSGSASTPQEEQTKEGACEDPHDLLATPTPELLLDWRQSAEEVIVKLRVGVGPLQLEDVDAAFTDTDCVVRFAGGQQWGGVFYAEIKSSCAKVQTRKGSLLHLTLPKKVPMLTWPSLLVEADEQLCIPPLNSQTCLLGSEENLAPLAGEKAVPPGNDPVSPAMVRSRNPGKDDCAKEEMAVAADAATLVDEPESMVNLAFVKNDSYEKGPDSVVVHVYVKEICRDTSRVLFREQDFTLIFQTRDGNFLRLHPGCGPHTTFRWQVKLRNLIEPEQCTFCFTASRIDICLRKRQSQRWGGLEAPAARVGGAKVAVPTGPTPLDSTPPGGAPHPLTGQEEARAVEKDKSKARSEDTGLDSVATRTPMEHVTPKPETHLASPKPTCMVPPMPHSPVSGDSVEEEEEEEKKVCLPGFTGLVNLGNTCFMNSVIQSLSNTRELRDFFHDRSFEAEINYNNPLGTGGRLAIGFAVLLRALWKGTHHAFQPSKLKAIVASKASQFTGYAQHDAQEFMAFLLDGLHEDLNRIQNKPYTETVDSDGRPDEVVAEEAWQRHKMRNDSFIVDLFQGQYKSKLVCPVCAKVSITFDPFLYLPVPLPQKQKVLPVFYFAREPHSKPIKFLVSVSKENSTASEVLDSLSQSVHVKPENLRLAEVIKNRFHRVFLPSHSLDTVSPSDTLLCFELLSSELAKERVVVLEVQQRPQVPSVPISKCAACQRKQQSEDEKLKRCTRCYRVGYCNQLCQKTHWPDHKGLCRPENIGYPFLVSVPASRLTYARLAQLLEGYARYSVSVFQPPFQPGRMALESQSPGCTTLLSTGSLEAGDSERDPIQPPELQLVTPMAEGDTGLPRVWAAPDRGPVPSTSGISSEMLASGPIEVGSLPAGERVSRPEAAVPGYQHPSEAMNAHTPQFFIYKIDSSNREQRLEDKGDTPLELGDDCSLALVWRNNERLQEFVLVASKELECAEDPGSAGEAARAGHFTLDQCLNLFTRPEVLAPEEAWYCPQCKQHREASKQLLLWRLPNVLIVQLKRFSFRSFIWRDKINDLVEFPVRNLDLSKFCIGQKEEQLPSYDLYAVINHYGGMIGGHYTACARLPNDRSSQRSDVGWRLFDDSTVTTVDESQVVTRYAYVLFYRRRNSPVERPPRAGHSEHHPDLGPAAEAAASQASRIWQELEAEEEPVPEGSGPLGPWGPQDWVGPLPRGPTTPDEGCLRYFVLGTVAALVALVLNVFYPLVSQSRWR
B2: USP19 (ubiquitin-specific protease 19), endogenous (enzyme, UniProt O94966 1-1318)
chain: B1 chain

Tests used:
[1] = target: Flag-tagged SLC7A11 (solute carrier family 7 member 11) (UniProt Q9UPY5); assay: co-IP; HEK293T cells with expression vectors for Flag-tagged SLC7A11 and HA-tagged USP19 (legend: MIHA cells); cell extracts, immunoblot; which tag was precipitated is not stated
[2] = target: SLC7A11 (solute carrier family 7 member 11), endogenous (human (endogenous in MIHA)) (UniProt Q9UPY5); assay: co-IP; endogenous proteins in MIHA cells; immunoprecipitation with anti-SLC7A11, immunoblot

Binder | binding [1] | binding [2]
B1 | binds | 
B2 |  | binds
